From patent publication US20050171182A1, “Methods and compositions for use in the treatment of mutant receptor tyrosine kinase driven cellular proliferative diseases” (priority 2003, published 2005)

What was measured:
K562 cells = assay: MTT viability assay, K562 cells; assay type: cell-based; details: exposed to inhibitor for 72 hours
Protocol: (§1) Given that mutant Flt3 activates cyclin D/CDK4 signaling, the effect of the CDK4 inhibitor arcyriaflavin on the viability of MV4-11 cells was tested. As a control in this experiment, an inhibitor for cyclin A/CDK2 and cyclin E/CDK2 (purvalanol) as well as an inhibitor for cyclin B/CDK1 (alsterpaullone) was included. […] The inhibitors were also tested against EOL-1 cells, which express the mutant fusion kinase FiplL1-PDGFROα and against K562 and BV173 cells (CML cell lines) and THP-1 and U937 cells (AML cell lines). The dilution range of the inhibitors was from 20 μM to 10 nM.
(§2) Viability of the cell lines was determined by an MTT assay, which is based on the reduction of the tetrazolium salt 3, [4,5-dimethylthiazol-2-yl]-2,5-diphenyltetrazolium bromide (MTT). Mitochondrial enzymes associated with metabolic activity reduce MTT to a formazan dye, which can be measured spectrometrically. Cells undergoing apoptosis show reduced metabolic activity resulting in reduced formation of the formazan dye.

BV173 cells = assay: MTT viability assay, BV173 cells; assay type: cell-based; details: exposed to inhibitor for 72 hours
Protocol: as §1, §2

EOL-1 cells = details: read-out: Viability (IC50) EOL-1; exposed to inhibitor for 72 hours; MTT
Protocol: as §1, §2
(§3) The bone marrow environment is known to contain a multitude of cytokines. […] The cell lines were incubated with the appropriate inhibitor in the presence and absence of the cytokines GM-CSF and IL-3 (10 ng/mL each).
(§4) To test the role of MEK in the survival of MV4-11 and EOL-1 cells, a viability assay (48 hour incubation) was performed using U0126 (10 μM), an MEK specific inhibitor (see FIG. 5).

MV4-11 cells = details: read-out: Viability (IC50) MV4-11; exposed to inhibitor for 72 hours; MTT
Protocol: as §1, §2, §3, §4

THP-1 cells = details: read-out: Viability (IC50) THP-1; exposed to inhibitor for 72 hours; MTT
Protocol: as §1, §2, §3, §4

U937 cells = assay: MTT viability assay, U937 cells; assay type: cell-based; details: exposed to inhibitor for 72 hours
Protocol: as §1, §2

IC50 (K562 cells): 300 nM | IC50 (MV4-11 cells): > 10000 nM | IC50 (THP-1 cells): > 10000 nM | IC50 (U937 cells): > 10000 nM
SMILES: CS(=O)(=O)O.Cc1ccc(NC(=O)c2ccc(CN3CCN(C)CC3)cc2)cc1Nc1nccc(-c2cccnc2)n1 [imatinib, 4-[(4-methyl-1-piperazinyl)methyl]-N-[4-methyl-3-[[4-(3-pyridinyl) -2-pyrimidinyl]amino-phenyl]benzamide methanesulfonate]
IC50 (BV173 cells): 600 nM | IC50 (EOL-1 cells): < 1 nM
